The supplement of paper PMC6411743
± gives the standard deviation of the averaged measurements. Only a part is listed here, and it is no random draw.

Chains of the proteins cited; added tags and fusions are not shown. Lines headed by an entry give the natural chain unless they say otherwise; changes in a name come on top.
UniProt Q9Y2Z0: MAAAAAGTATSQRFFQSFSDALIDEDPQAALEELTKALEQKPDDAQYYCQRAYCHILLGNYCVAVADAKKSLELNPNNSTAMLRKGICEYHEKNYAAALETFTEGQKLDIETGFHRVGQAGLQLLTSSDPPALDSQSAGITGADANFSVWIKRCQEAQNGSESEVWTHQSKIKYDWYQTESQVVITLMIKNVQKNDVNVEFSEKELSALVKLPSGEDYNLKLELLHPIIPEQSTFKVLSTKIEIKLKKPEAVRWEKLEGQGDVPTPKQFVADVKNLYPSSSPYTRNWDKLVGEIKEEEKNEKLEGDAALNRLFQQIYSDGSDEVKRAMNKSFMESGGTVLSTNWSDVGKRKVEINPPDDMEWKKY
UniProt Q9UMN6, whole entry: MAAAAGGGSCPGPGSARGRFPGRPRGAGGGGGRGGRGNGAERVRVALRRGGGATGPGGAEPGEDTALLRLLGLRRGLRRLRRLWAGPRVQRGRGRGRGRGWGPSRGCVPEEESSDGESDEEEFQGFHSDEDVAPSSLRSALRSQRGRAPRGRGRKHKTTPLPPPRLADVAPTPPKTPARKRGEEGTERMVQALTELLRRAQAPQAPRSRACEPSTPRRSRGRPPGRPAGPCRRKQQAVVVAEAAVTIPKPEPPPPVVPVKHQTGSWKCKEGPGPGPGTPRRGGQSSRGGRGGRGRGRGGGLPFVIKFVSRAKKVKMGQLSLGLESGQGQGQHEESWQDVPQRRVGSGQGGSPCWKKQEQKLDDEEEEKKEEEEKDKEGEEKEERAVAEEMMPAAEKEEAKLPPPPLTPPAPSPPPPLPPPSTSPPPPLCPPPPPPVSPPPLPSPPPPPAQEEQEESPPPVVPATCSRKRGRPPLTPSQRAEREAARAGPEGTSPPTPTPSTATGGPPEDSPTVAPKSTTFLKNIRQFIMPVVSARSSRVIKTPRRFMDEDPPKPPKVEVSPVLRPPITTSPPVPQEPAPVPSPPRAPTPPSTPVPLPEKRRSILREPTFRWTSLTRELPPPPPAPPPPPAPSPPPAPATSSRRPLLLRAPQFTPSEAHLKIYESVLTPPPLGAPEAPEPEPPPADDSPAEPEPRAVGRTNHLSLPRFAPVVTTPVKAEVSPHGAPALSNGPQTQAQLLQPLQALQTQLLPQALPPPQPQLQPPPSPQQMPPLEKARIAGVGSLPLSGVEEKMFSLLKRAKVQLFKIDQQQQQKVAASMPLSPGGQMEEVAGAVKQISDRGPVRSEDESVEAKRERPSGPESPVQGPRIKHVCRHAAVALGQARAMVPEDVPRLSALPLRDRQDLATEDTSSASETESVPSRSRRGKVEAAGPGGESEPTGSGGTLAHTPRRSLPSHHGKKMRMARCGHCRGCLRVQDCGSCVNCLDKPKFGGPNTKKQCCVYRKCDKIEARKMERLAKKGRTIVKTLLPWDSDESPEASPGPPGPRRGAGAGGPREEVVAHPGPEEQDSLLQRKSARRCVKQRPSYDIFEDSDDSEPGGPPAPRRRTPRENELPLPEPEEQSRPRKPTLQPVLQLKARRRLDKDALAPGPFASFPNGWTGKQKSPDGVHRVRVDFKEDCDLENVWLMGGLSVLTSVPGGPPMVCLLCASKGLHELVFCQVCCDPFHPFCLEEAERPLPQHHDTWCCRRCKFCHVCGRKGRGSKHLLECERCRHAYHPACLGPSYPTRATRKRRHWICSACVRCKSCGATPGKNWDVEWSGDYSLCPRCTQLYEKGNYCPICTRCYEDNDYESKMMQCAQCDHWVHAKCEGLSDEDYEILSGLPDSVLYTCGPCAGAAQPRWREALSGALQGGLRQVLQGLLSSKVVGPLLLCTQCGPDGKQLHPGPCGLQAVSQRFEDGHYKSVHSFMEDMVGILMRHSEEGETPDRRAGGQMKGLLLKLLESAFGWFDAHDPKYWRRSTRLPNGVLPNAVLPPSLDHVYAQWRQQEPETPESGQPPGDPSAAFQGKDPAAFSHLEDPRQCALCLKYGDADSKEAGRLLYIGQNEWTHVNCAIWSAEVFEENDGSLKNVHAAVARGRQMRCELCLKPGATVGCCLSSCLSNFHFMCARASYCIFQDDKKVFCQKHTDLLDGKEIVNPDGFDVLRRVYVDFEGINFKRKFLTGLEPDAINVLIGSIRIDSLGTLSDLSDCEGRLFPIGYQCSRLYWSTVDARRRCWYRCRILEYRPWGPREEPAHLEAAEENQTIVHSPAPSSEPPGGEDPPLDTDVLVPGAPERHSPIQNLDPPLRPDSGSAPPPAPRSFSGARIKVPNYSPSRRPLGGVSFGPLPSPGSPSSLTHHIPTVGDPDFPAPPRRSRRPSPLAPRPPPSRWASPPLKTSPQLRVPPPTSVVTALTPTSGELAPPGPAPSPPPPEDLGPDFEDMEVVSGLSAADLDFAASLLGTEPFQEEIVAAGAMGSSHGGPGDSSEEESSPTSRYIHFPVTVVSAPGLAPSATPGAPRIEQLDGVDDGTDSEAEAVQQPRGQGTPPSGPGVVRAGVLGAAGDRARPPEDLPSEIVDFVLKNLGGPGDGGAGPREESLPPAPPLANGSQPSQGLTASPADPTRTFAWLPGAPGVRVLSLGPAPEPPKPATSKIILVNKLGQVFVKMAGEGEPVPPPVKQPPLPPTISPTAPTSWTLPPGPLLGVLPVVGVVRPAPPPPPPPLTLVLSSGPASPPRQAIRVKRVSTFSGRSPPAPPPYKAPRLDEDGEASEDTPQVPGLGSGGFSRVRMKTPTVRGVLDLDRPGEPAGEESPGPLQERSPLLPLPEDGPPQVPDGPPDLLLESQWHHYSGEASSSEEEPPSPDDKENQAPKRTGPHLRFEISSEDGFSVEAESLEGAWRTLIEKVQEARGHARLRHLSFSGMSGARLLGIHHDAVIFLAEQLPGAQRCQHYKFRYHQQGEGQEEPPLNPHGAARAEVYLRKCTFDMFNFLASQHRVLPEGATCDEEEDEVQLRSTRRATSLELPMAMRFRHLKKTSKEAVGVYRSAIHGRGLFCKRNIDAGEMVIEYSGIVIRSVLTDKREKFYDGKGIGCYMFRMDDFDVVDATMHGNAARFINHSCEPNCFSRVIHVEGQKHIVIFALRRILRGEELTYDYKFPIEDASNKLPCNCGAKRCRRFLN
UniProt Q9UI10, whole entry: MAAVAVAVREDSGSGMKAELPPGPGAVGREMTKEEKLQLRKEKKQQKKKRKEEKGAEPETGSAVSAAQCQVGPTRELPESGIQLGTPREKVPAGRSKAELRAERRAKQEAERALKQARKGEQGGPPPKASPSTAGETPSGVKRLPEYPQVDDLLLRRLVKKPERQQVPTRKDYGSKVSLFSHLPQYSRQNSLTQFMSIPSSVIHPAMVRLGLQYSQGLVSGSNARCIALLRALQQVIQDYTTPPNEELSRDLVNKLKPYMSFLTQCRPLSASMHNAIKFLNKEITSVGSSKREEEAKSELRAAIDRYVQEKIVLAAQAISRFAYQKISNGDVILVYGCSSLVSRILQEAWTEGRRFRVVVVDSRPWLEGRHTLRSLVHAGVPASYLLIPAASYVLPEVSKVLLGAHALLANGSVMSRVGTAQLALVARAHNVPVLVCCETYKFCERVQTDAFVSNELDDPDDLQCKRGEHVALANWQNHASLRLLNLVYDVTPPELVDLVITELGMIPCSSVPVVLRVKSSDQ
UniProt Q9Y228: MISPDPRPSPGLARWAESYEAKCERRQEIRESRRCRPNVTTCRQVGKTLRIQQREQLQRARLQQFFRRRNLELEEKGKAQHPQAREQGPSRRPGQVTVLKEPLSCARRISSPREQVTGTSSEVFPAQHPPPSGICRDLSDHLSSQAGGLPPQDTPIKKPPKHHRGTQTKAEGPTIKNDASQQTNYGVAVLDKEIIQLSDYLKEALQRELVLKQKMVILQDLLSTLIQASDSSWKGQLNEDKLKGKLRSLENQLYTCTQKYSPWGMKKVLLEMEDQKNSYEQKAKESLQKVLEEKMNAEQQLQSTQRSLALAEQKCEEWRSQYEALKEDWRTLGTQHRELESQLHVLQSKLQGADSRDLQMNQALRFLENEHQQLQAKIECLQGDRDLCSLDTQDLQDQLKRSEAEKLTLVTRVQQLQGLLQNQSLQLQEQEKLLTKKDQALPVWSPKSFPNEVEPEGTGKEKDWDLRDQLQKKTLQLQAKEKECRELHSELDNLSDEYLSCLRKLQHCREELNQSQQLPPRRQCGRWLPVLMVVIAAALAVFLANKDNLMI
UniProt Q9ULP9: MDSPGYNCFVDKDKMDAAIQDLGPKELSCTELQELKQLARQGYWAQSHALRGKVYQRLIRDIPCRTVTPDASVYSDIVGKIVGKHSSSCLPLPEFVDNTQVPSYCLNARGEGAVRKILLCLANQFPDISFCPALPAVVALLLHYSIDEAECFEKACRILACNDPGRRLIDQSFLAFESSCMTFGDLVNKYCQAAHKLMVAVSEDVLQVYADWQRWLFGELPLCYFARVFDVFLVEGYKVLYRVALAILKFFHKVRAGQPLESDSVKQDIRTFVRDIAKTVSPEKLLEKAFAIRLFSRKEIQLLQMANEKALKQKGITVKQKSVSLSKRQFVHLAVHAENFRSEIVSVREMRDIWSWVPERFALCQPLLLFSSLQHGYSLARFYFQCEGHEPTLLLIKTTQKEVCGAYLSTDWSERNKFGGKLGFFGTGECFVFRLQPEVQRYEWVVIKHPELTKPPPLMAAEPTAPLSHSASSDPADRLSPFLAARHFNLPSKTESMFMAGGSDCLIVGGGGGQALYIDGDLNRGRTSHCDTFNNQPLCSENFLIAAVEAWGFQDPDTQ
UniProt Q9UMZ2: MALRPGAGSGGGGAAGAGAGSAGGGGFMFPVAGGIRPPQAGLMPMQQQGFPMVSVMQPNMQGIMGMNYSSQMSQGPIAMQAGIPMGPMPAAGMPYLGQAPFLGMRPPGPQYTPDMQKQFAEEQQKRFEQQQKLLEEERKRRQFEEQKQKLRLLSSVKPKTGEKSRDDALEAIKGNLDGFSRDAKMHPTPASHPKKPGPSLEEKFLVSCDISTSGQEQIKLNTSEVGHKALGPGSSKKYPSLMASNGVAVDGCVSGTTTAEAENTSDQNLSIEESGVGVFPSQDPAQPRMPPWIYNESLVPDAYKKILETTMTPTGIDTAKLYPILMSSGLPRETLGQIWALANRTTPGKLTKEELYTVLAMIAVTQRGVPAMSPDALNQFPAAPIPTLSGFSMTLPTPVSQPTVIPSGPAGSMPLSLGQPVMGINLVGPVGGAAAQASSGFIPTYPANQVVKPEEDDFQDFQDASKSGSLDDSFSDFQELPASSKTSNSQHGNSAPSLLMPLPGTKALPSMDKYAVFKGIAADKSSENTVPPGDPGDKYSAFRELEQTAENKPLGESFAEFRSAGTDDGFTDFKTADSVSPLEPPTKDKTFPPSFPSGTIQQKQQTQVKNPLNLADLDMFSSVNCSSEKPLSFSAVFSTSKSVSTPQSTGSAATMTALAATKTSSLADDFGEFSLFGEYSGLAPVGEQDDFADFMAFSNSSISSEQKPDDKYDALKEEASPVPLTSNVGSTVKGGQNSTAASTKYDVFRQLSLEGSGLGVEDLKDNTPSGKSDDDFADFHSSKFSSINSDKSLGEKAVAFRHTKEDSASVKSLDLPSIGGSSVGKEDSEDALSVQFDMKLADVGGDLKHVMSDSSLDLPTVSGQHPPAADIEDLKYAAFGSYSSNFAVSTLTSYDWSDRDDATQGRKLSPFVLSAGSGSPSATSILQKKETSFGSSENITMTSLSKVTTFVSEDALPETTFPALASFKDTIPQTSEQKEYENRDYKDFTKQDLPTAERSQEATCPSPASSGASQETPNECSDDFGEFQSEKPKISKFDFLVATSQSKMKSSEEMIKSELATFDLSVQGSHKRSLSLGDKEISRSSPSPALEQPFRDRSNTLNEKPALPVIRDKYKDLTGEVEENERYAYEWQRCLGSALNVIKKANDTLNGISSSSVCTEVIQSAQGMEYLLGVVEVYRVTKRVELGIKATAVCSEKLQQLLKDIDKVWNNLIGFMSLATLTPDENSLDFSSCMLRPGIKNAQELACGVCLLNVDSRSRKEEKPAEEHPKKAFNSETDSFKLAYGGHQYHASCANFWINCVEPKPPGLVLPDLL
UniProt Q9UJX3, whole entry: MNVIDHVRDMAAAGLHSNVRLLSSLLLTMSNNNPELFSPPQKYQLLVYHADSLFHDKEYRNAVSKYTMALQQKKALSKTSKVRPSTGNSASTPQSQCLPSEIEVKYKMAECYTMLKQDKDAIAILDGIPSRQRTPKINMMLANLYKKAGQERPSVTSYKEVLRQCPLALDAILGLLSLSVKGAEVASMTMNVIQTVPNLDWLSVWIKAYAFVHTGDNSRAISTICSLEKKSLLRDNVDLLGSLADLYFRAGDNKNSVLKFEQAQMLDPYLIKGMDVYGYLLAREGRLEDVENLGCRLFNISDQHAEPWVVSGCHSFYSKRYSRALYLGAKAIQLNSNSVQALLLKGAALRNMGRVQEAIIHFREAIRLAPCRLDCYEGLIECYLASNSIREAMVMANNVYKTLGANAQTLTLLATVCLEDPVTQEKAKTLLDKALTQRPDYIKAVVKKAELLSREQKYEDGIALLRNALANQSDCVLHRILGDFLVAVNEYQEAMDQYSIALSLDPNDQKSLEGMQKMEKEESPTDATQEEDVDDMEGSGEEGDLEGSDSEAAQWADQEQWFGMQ

Compound: Nc1ncnc2c1ncn2[C@@H]1O[C@H](COP(=O)(O)OP(=O)(O)NP(=O)(O)O)[C@@H](O)[C@H]1O [adenylyl imidodiphosphate]
Test: NP40-soluble protein abundance relative to vehicle (solubility fold change) (ratio); higher = more soluble protein in presence of AMP-PNP
In short: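 Jurkat crude lysate (Dounce-homogenised) was treated with eight concentrations from 0.1 to 10 mM for 10 min at room temperature, then 3 min at 37 °C. It was solubilised with 0.8% NP40 and benzonase (60 min, 4 °C) and ultracentrifuged, and the supernatant was TMT-labelled for LC-MS/MS. Intensities were vsn-normalised, and the value is the fold change against the NP40-processed vehicle per replicate, from three independent experiments.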

Target	NP40-soluble protein abundance (concentration: 1mM)	NP40-soluble protein abundance (concentration: 2mM)	NP40-soluble protein abundance (concentration: 4mM)	NP40-soluble protein abundance (concentration: 6mM)	NP40-soluble protein abundance (concentration: 8mM)	NP40-soluble protein abundance (concentration: 10mM)
UniProt Q9UKW4 and related entries	0.985 ± 0.01	0.955 ± 0.086	0.974 ± 0.023	0.958 ± 0.026	0.981 ± 0.023	0.964 ± 0.034
SUGT1 (UniProt Q9Y2Z0)	1.008 ± 0.0067	1.01 ± 0.0087	0.955 ± 0.014	1.01 ± 0.022	0.983 ± 0.032	0.963 ± 0.044
UniProt Q9Y3D0	0.982 ± 0.053	0.979 ± 0.013	0.952 ± 0.062	0.961 ± 0.063	0.943 ± 0.051	0.924 ± 0.083
LEMD3 (UniProt Q9Y2U8)	1.04 ± 0.013	1.05 ± 0.014	1.05 ± 0.028	0.994 ± 0.011	1.01 ± 0.013	1.01 ± 0.02
UniProt Q9Y2H0 and related entries	0.986 ± 0.045	1.02 ± 0.08	0.98 ± 0.037	0.975 ± 0.019	0.969 ± 0.027	0.965 ± 0.027
KMT2B (UniProt Q9UMN6)	1 ± 0.032	1.03 ± 0.066	1.02 ± 0.019	1.01 ± 0.036	0.995 ± 0.044	1.03 ± 0.043
UniProt Q9UHB4 and related entries	1 ± 0.043	0.967 ± 0.025	0.964 ± 0.025	0.989 ± 0.027	1 ± 0.03	0.97 ± 0.023
WBP11 (UniProt Q9Y2W2)	1.05 ± 0.019	1.15 ± 0.13	1.1 ± 0.032	1.15 ± 0.048	1.14 ± 0.024	1.23 ± 0.048
UniProt Q9UID6 and related entries	0.981 ± 0.012	0.999 ± 0.041	0.988 ± 0.023	0.999 ± 0.03	1 ± 0.024	0.99 ± 0.024
PPM1H (UniProt Q9ULR3)	1 ± 0.013	0.96 ± 0.041	0.967 ± 0.033	0.964 ± 0.016	0.954 ± 0.014	0.956 ± 0.02
UniProt Q9UJX6 and related entries	0.953 ± 0.034	0.914 ± 0.028	0.94 ± 0.038	0.956 ± 0.028	0.9697 ± 0.0046	0.944 ± 0.017
UniProt Q9UI10 and related entries	1.03 ± 0.026	1.04 ± 0.029	1.04 ± 0.04	0.987 ± 0.039	0.9691 ± 0.0095	0.9702 ± 0.0062
UniProt Q9Y2U5	0.982 ± 0.034	0.982 ± 0.026	0.986 ± 0.051	1.016 ± 0.0081	0.973 ± 0.046	0.987 ± 0.035
UniProt Q9Y2X0-2|Q9Y2X0-3|Q9Y2X0	0.928 ± 0.029	0.913 ± 0.071	0.924 ± 0.06	0.927 ± 0.044	0.953 ± 0.056	0.913 ± 0.089
MAGED2 (UniProt Q9UNF1)	1.02 ± 0.032	1.04 ± 0.051	0.989 ± 0.011	0.952 ± 0.031	0.938 ± 0.015	0.936 ± 0.013
APPL1 (UniProt Q9UKG1)	1 ± 0.012	0.969 ± 0.051	1.01 ± 0.011	0.99 ± 0.011	0.986 ± 0.029	0.977 ± 0.013
ACAD8 (UniProt Q9UKU7)	0.984 ± 0.019	0.949 ± 0.089	1.004 ± 0.0096	1.03 ± 0.033	1.03 ± 0.041	1.04 ± 0.043
LNPEP (UniProt Q9UIQ6)	1.02 ± 0.021	1.05 ± 0.12	1.02 ± 0.057	1.06 ± 0.065	1.07 ± 0.044	1.08 ± 0.079
UniProt Q9UKM9 and related entries	0.912 ± 0.053	0.922 ± 0.035	0.882 ± 0.08	0.935 ± 0.03	0.889 ± 0.039	0.937 ± 0.11
WARS2 (UniProt Q9UGM6)	1.014 ± 0.0083	1.02 ± 0.03	1.06 ± 0.013	1.1 ± 0.036	1.06 ± 0.038	1.07 ± 0.025
TRAF3IP3 (UniProt Q9Y228)	0.995 ± 0.028	1.05 ± 0.042	1.01 ± 0.043	0.956 ± 0.031	0.977 ± 0.074	0.969 ± 0.046
UniProt Q9UL54-2	0.99 ± 0.026	0.992 ± 0.019	1.01 ± 0.02	1.01 ± 0.029	1.02 ± 0.042	1.01 ± 0.035
UniProt Q9UJU2 and related entries	1.03 ± 0.037	1.07 ± 0.12	0.974 ± 0.085	0.958 ± 0.071	0.958 ± 0.053	1 ± 0.059
GNPTG (UniProt Q9UJJ9)	0.981 ± 0.015	1.02 ± 0.072	0.949 ± 0.05	0.976 ± 0.038	0.946 ± 0.029	0.973 ± 0.057
UniProt Q9ULP9 and related entries	0.992 ± 0.033	0.9667 ± 0.0064	0.983 ± 0.028	0.999 ± 0.032	0.962 ± 0.047	0.957 ± 0.063
UniProt Q9UMZ2 and related entries	1.02 ± 0.035	1.05 ± 0.064	1.03 ± 0.031	0.978 ± 0.035	0.955 ± 0.021	0.981 ± 0.037
UniProt Q9UHB9 and related entries	1.02 ± 0.015	1.03 ± 0.012	0.996 ± 0.1	1.06 ± 0.076	1.09 ± 0.032	1.1 ± 0.015
RUVBL2 (UniProt Q9Y230)	1.02 ± 0.067	0.997 ± 0.079	0.979 ± 0.048	1.02 ± 0.063	0.994 ± 0.047	1.01 ± 0.082
CHORDC1 (UniProt Q9UHD1)	0.996 ± 0.029	1.004 ± 0.0087	0.952 ± 0.036	0.957 ± 0.059	0.924 ± 0.045	0.924 ± 0.055
ANAPC7 (UniProt Q9UJX3)	1.04 ± 0.021	1.036 ± 0.0033	1.05 ± 0.022	1.04 ± 0.049	1.02 ± 0.044	1.05 ± 0.036

Some of the entries so far, comma-delimited.
Target,NP40-soluble protein abundance (concentration: 1mM),NP40-soluble protein abundance (concentration: 2mM),NP40-soluble protein abundance (concentration: 4mM),NP40-soluble protein abundance (concentration: 6mM),NP40-soluble protein abundance (concentration: 8mM),NP40-soluble protein abundance (concentration: 10mM)
KMT2B (UniProt Q9UMN6),1 ± 0.032,1.03 ± 0.066,1.02 ± 0.019,1.01 ± 0.036,0.995 ± 0.044,1.03 ± 0.043
UniProt Q9UHB4 and related entries,1 ± 0.043,0.967 ± 0.025,0.964 ± 0.025,0.989 ± 0.027,1 ± 0.03,0.97 ± 0.023
UniProt Q9UJX6 and related entries,0.953 ± 0.034,0.914 ± 0.028,0.94 ± 0.038,0.956 ± 0.028,0.9697 ± 0.0046,0.944 ± 0.017
LNPEP (UniProt Q9UIQ6),1.02 ± 0.021,1.05 ± 0.12,1.02 ± 0.057,1.06 ± 0.065,1.07 ± 0.044,1.08 ± 0.079
UniProt Q9UKM9 and related entries,0.912 ± 0.053,0.922 ± 0.035,0.882 ± 0.08,0.935 ± 0.03,0.889 ± 0.039,0.937 ± 0.11
WARS2 (UniProt Q9UGM6),1.014 ± 0.0083,1.02 ± 0.03,1.06 ± 0.013,1.1 ± 0.036,1.06 ± 0.038,1.07 ± 0.025
UniProt Q9ULP9 and related entries,0.992 ± 0.033,0.9667 ± 0.0064,0.983 ± 0.028,0.999 ± 0.032,0.962 ± 0.047,0.957 ± 0.063
CHORDC1 (UniProt Q9UHD1),0.996 ± 0.029,1.004 ± 0.0087,0.952 ± 0.036,0.957 ± 0.059,0.924 ± 0.045,0.924 ± 0.055
